Test results taken from publication PMC7999926.
These are yes or no findings as the source states them, for the method shown. Binding seen in cells or lysates may run through a third protein. Some entries that bind do so weakly or less than the wild type. Tags and fused reporters may be left off the sequences shown.

Target: T1, interferon regulatory factor 3 (IRF3)-FLAG (UniProt Q14653)
T1 sequence: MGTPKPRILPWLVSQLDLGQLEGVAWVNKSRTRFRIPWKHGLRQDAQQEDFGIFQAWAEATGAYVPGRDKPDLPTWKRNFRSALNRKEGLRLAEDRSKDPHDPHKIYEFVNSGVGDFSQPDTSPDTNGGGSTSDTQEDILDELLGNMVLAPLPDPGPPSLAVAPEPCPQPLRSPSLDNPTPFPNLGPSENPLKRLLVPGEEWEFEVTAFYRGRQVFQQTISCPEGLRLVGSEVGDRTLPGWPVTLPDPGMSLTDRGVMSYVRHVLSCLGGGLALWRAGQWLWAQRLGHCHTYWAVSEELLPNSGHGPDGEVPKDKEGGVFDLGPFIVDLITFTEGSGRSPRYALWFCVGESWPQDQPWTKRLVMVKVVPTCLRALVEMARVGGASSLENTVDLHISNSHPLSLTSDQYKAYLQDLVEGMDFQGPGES
Experiment: co-IP

B1: Tank-binding kinase 1 (TBK1)-MYC (enzyme, UniProt Q9UHD2 1-729)
chain: MQSTSNHLWLLSDILGQGATANVFRGRHKKTGDLFAIKVFNNISFLRPVDVQMREFEVLKKLNHKNIVKLFAIEEETTTRHKVLIMEFCPCGSLYTVLEEPSNAYGLPESEFLIVLRDVVGGMNHLRENGIVHRDIKPGNIMRVIGEDGQSVYKLTDFGAARELEDDEQFVSLYGTEEYLHPDMYERAVLRKDHQKKYGATVDLWSIGVTFYHAATGSLPFRPFEGPRRNKEVMYKIITGKPSGAISGVQKAENGPIDWSGDMPVSCSLSRGLQVLLTPVLANILEADQEKCWGFDQFFAETSDILHRMVIHVFSLQQMTAHKIYIHSYNTATIFHELVYKQTKIISSNQELIYEGRRLVLEPGRLAQHFPKTTEENPIFVVSREPLNTIGLIYEKISLPKVHPRYDLDGDASMAKAITGVVCYACRIASTLLLYQELMRKGIRWLIELIKDDYNETVHKKTEVVITLDFCIRNIEKTVKVYEKLMKINLEAAELGEISDIHTKLLRLSSSQGTIETSLQDIDSRLSPGGSLADAWAHQEGTHPKDRNVEKLQVLLNCMTEIYYQFKKDKAERRLAYNEEQIHKFDKQKLYYHATKAMTHFTDECVKKYEAFLNKSEEWIRKMLHLRKQLLSLTNQCFDIEEEVSKYQEYTNELQETLPQKMFTASSGIKHTMTPIYPSSNTLVEMTLGMKKLKEEMEGVVKELAENNHILERFGSLTMDGGLRNVDCL
- binding: binds
